Among the data in PubChem BioAssay AID493014 (National Center for Advancing Translational Sciences (NCATS), 2011) are AC50 values, retold here.

Some of the results follow. Further columns of the screen follow, without active or inactive calls. Compounds called inactive in the main read-out are mostly missing here. The note in brackets gives the kind of curve behind each potency; many fits are weak.

The nature of the experiment: qHTS Assay to Find Inhibitors of Chronic Active B-Cell Receptor Signaling. The settings on record: ABC-DLBCL IkBa-CBG/CBR reporter, luminescence ratio (green luciferase fused to IkBa over red control in TMD8 lymphoma cells), 4 h. The gist of the method:
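TMD8 ABC-DLBCL cells carrying doxycycline-inducible green luciferase fused to IkappaBalpha plus unfused red luciferase were exposed to compounds (up to 46 uM) for 4 hrs at 37C. Activity came from the overlap-corrected green/red luminescence ratio.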

Setting [1] is: measured here: CBR red luminescence, cell number.

As usually defined, the AC50 is the concentration at which the activity in the assay is half-maximal. Turning to `O=Cc1ccc(OCCOc2ccc([N+](=O)[O-])cc2)cc1`, under setting [1], the concentration at half-maximal activity (AC50) was 35.5 µM [rising, single point].
On the same count and under the same terms, then `COc1cc(/C=C/C(=O)OCC(=O)c2ccc[nH]2)cc(OC)c1OC`, with 32.6 µM [rising, partial curve, poor fit]; and `CCCSc1nnc(-c2cnn(-c3ccccc3)c2-n2cccc2)n1C`, with 0.58 µM [falling, partial curve, poor fit]; and `O=C(Cc1ccc([N+](=O)[O-])cc1)NC1CCCCCC1`, with 5.62 µM [falling, single point].
Turning to `Cc1noc(C)c1S(=O)(=O)Nc1ccc2c(c1)C(=O)N([C@H](C)CO)C[C@H](C)[C@@H](CN(C)S(=O)(=O)c1ccccc1)O2`, the AC50 under setting [1] is 4.11 µM [rising, single point].
`COC(=O)C1=CN(CCCN2CCCC2=O)C=C(C(=O)OC)C1c1ccccc1C(F)(F)F`: under setting [1], the concentration at half-maximal activity (AC50) is 0.708 µM [falling, full curve, poor fit].
`Cc1ccc2c(c1)c1c3n2CCN(C(=O)Cn2c(-c4ccccc4)noc2=O)C3CCC1` (configuration not stated): the AC50 under setting [1] was 1.12 µM [falling, full curve].
Turning to `COc1ccc(C(=O)NCC(=O)OCC(=O)N2CC(C)OC(C)C2)cc1OC` (configuration not stated), the AC50 under setting [1] is 4.61 µM [falling, partial curve, poor fit].
With `Cc1cc(C)c(OCC(=O)OCC(=O)NCc2cccs2)c(C)c1`, under setting [1], the concentration at half-maximal activity (AC50) is 4.61 µM [rising, partial curve, poor fit].
`CCCCCCCC(=O)OCC(=O)[C@@]1(O)CC[C@H]2[C@@H]3CCC4=CC(=O)CC[C@]4(C)[C@H]3[C@@H](O)C[C@@]21C`: under setting [1], the concentration at half-maximal activity (AC50) is 0.0184 µM [rising, full curve, poor fit].
With `Cc1ccc(C2=NNC(=Nc3ccc(F)cc3)SC2)cc1`, the AC50 under setting [1] is 5.01 µM [falling, single point].
Turning to `CC(C)CC(=O)NC(c1ccccc1)c1c(O)ccc2ccccc12` (configuration not stated), the concentration at half-maximal activity (AC50) under setting [1] is 35.5 µM [falling, single point].
On to `COc1cccc(/C=N/NC(=O)c2ccc(CN3c4cccc5cccc(c45)S3(=O)=O)cc2)c1`, for which the AC50 was 13 µM [rising, partial curve, poor fit] under setting [1] and 25.9 µM [falling, single point] (measured here: IkBa-CBG green luminescence).
Regarding `O=C(Nc1ncc2c(n1)-c1ccccc1CC2)c1ccccc1`, under setting [1], the AC50 is 12.6 µM [falling, partial curve, poor fit].
On the same count and under the same terms, then `O=C(O)c1cccc(N=NN2CCCCCC2)c1`, with 9.2 µM [falling, partial curve].
Turning to `CCOc1cccc(C(=O)NC(=S)Nc2ccc(N3CCCC3)cc2)c1`, the AC50 under setting [1] was 2.59 µM [falling, full curve, poor fit].
